Assay results published in EP0520604A2, “Monoclonal antibody against pentacyclic oleanan-type triterpene and use thereof” (MINOPHAGEN PHARMACEUTICAL COMPANY, priority 1991, dated 1992).
For at least one compound, name, drawing or mass did not settle the structure.

Legend:
Assay in all cases: Inhibition ELISA (cross reactivity), solidified GA-BSA conjugate as antigen
Type in all cases: binding, mouse
[1] = tested on: monoclonal antibody produced by a strain GA2-20-1
Description: (§1) Inhibition ELISA comprises sequentially incubating the solidified GA-BSA conjugate with glycyrrhetic acid or a sample together with the antibody, bonding the enzyme-labeled anti-mouse IgG to the resulting incubation mixture, thereby measuring the enzyme activity. The antibody bonded to the antigen contained in the sample cannot be bonded to the solidified antigen, and therefore, the amount of the enzyme bonded is reduced. By measuring the enzyme activity, glycyrrhetic acid contained in the sample can be measured. The amount of glycyrrhizin can be determined by measuring glycyrrhetic acid generated by the acid hydrolysis of glycyrrhizin.
(§2) According to direct ELISA, the antibody solution is divided into each well; according to inhibition ELISA, glycyrrhetic acid or a sample solution is divided into each well together with the antibody solution. After left to stand at ambient temperature, the wells are washed before the division of an enzyme-labeled anti-mouse IgG solution, and then the wells are left to stand at ambient temperature.
(§3) After washing each well again, a solution of a dye which develops color on enzyme reaction is divided into the washed wells for reaction. After the completion of the reaction, the absorbance of each well at 405 nm is measured with an immunoreader. By comparing the results with the values obtained from known amounts of the antigen, glycyrrhetic acid can be assayed.
(§4) The cross reactivity to the following individual compounds was examined according to inhibition ELISA. • (1) 18α H-Olean-11-oxo-12ene-30-oic acid • (2) Olean-12ene-3,11-dioxo-30-oic acid • (3) Olean-12ene-3α-hydroxy-11-oxo-30-oic- acid • (4) Olean-12ene-11-oxo-3β, 30-diol • (5) Cholic acid • (6) Deoxy cholic acid • (7) Glycyrrhetlc acid (GA) • (8) Glycyrrhizin (GL) These are illustrated as compounds (1), (2), (3), (4), (5), (6), (GA) and (GL).
(§5) One hundred µℓ each of the GA-BSA solution (10 µg/mℓ) was divided in the wells of a 96-well microtiter plate and left to stand overnight at 4° C. After removing the antigen solution, 100 µℓ each of the BSA-PBS was divided and left to stand at 37° C for one hour.
(§6) The 50-fold diluted antibody and each of the compounds were individually adjusted to 10 ng/mℓ, 100 ng/mℓ and 1000 ng/mℓ. Fifty µℓ each of the adjusted solution was divided in each well. After left to stand at ambient temperature for 30 minutes, the wells were washed three times with the PBS containing 0.05 % Tween 20, and washed twice with PBS, followed by the division of the 5000-fold dilution of goat anti-mouse IgG labeled with alkaline phosphatase, and left to stand at room temperature for 30 minutes.
(§7) After each well was washed following the same procedure described above, 100 µℓ each of 1M diethanolamine buffer (pH 9.8) containing p-nitrophenyl phosphate at a concentration of 1 mg/mℓ was divided and reacted at 37° C for 30 minutes. After the completion of the reaction, 2M sodium hydroxide was added. Then, the absorbance at 405 nm of each well was measured with an immunoreader.
(§8) From the inhibition curves obtained, 50 % inhibition concentration (IC 50) of each compound was determined. The antibody generated by the strain GA2-20-1, among the three strains, had the highest specificity.

[2] = tested on: monoclonal antibody produced by a strain GA2-20-3
Description: as §1, §2, §3, §4, §5, §6, §7, §8

[3] = tested on: monoclonal antibody produced by a strain GA2-20-6
Description: as §1, §2, §3, §4, §5, §6, §7, §8

C[C@H](CCC(=O)O)[C@H]1CC[C@H]2[C@@H]3CC[C@@H]4C[C@H](O)CC[C@]4(C)[C@H]3C[C@H](O)[C@]12C [(6), Deoxy cholic acid]
(<1.6) %: cross reactivity ([1]; monoclonal antibody 2-20-1, values in parenthesis, relative to (GA)) | cross reactivity ([2]; monoclonal antibody 2-20-3, values in parenthesis, relative to (GA)) | cross reactivity ([3]; monoclonal antibody 2-20-6, values in parenthesis, relative to (GA))
>1 µg/mL: 50 % inhibition concentration (IC 50) ([1]; monoclonal antibody 2-20-1, 50-fold diluted, from inhibition curves) | 50 % inhibition concentration (IC 50) ([2]; monoclonal antibody 2-20-3, 50-fold diluted, from inhibition curves) | 50 % inhibition concentration (IC 50) ([3]; monoclonal antibody 2-20-6, 50-fold diluted, from inhibition curves)
